{
  "source": "patent US20210329924A1",
  "about": "“METAL-BASED ANTIMICROBIAL COMPOSITION AND METHOD OF USING” (Microbonds Inc., priority 2020, published 2021)",
  "key": {"[1]": {"test": "Wash test (metal remains adhered to substrate after multiple washes)", "details": "white cotton fabric, 1 hr"}, "[2]": {"test": "Stain test (colour change of treated substrate, Delta E criteria)", "details": "white cotton fabric, 1 hr"}},
  "data": [
    {"substance": "[Ag(NH3)2]-carbonate [Example 1]", "values": [
      {"measurement": "Wash test Pass?", "setting": "[1]; 10 ppm silver metal loading", "value": "Yes"},
      {"measurement": "Wash test Pass?", "setting": "[1]; 20 ppm silver metal loading", "value": "Yes"},
      {"measurement": "Wash test Pass?", "setting": "[1]; 100 ppm silver metal loading", "value": "Yes"},
      {"measurement": "Wash test Pass?", "setting": "[1]; 500 ppm silver metal loading", "value": "Yes"},
      {"measurement": "Wash test Pass?", "setting": "[1]; 1000 ppm silver metal loading", "value": "Yes"},
      {"measurement": "Wash test Pass?", "setting": "[1]; 3000 ppm silver metal loading", "value": "Yes"},
      {"measurement": "Stain test Pass?", "setting": "[2]; 10 ppm silver metal loading", "value": "Yes"},
      {"measurement": "Stain test Pass?", "setting": "[2]; 20 ppm silver metal loading", "value": "Yes"},
      {"measurement": "Stain test Pass?", "setting": "[2]; 100 ppm silver metal loading", "value": "Yes"},
      {"measurement": "Stain test Pass?", "setting": "[2]; 500 ppm silver metal loading", "value": "Yes"},
      {"measurement": "Stain test Pass?", "setting": "[2]; 1000 ppm silver metal loading", "value": "Yes"},
      {"measurement": "Stain test Pass?", "setting": "[2]; 3000 ppm silver metal loading", "value": "No"}
    ]}
  ]
}
